The target of assay [1] is T1, FhuB, membrane subunit of FhuCDB (Escherichia coli) (UniProt P06972).
T1 sequence: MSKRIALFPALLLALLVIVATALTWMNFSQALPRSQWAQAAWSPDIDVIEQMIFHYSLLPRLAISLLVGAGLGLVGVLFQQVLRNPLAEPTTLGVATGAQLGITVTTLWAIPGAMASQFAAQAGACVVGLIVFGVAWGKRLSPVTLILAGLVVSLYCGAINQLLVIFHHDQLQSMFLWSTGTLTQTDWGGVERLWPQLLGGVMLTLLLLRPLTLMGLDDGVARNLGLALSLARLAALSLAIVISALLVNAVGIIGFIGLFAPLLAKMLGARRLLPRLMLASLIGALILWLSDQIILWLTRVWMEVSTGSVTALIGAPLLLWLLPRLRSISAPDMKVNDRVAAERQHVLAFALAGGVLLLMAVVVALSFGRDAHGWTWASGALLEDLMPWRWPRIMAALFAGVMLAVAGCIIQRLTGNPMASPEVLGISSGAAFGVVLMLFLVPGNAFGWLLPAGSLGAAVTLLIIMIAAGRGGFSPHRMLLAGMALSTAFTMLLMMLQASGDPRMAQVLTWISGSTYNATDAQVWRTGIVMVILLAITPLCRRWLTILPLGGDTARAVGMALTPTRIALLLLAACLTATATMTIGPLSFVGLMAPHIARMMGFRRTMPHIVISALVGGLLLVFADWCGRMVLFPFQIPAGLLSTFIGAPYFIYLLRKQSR
As to the kind of experiment: cryo-EM structure; purified FhuCDB in LMNG at ~1.2 mg/ml, single-particle cryo-EM, 3.4 Å, inward-open, no substrate bound; both purified.

Assay [2] addresses T2, FhuCB subcomplex (membrane subunit FhuB and cytosolic ATPase FhuC of the ferrichrome importer), wild type (Escherichia coli) (UniProt P07821+P06972).
T2 sequence (chain, red-tris-NTA 2nd generation dye on the His-tag (in the MST experiments)) 1: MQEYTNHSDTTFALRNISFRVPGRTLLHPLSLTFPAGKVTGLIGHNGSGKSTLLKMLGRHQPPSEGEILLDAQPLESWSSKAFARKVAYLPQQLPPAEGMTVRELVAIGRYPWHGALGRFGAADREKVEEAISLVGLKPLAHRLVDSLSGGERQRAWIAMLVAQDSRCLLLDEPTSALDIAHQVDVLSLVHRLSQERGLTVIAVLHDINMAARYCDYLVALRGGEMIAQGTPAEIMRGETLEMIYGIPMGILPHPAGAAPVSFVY
T2 sequence (chain, red-tris-NTA 2nd generation dye on the His-tag (in the MST experiments)) 2: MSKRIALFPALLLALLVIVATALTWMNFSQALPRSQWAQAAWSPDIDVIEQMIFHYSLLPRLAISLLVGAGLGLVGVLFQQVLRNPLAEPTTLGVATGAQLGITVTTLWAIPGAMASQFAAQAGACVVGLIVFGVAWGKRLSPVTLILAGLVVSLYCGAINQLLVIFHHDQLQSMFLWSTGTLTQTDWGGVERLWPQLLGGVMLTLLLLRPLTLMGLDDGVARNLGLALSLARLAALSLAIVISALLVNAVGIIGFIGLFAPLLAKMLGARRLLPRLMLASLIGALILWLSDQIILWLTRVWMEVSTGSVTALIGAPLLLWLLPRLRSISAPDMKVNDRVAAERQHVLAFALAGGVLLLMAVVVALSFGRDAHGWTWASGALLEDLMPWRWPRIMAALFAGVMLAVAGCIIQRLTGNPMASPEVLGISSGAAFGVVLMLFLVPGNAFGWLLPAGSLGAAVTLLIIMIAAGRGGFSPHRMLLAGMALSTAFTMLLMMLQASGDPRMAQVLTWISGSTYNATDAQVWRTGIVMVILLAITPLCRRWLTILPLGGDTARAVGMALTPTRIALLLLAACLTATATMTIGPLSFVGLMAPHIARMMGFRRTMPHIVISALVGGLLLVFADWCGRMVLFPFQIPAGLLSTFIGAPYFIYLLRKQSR
Description: SEC; purified FhuCDB complex at 1 μM incubated with 10 μM ferrichrome and 5 mM ATP-Mg in solution, then gel filtration analysis; both purified. On the technique in general: SEC sorts molecules by how far they enter the pores of the column.

Results are given in words; binding and its absence hold for the method and conditions named. Some results given as binding are weak or reduced against the parent protein; the word gives no strength.

B1: FhuD as co-expressed from the whole FhuCDB operon and held in the purified FhuCDB complex (protein, UniProt P07822 31-296)
chain: AAIDPNRIVALEWLPVELLLALGIVPYGVADTINYRLWVSEPPLPDSVIDVGLRTEPNLELLTEMKPSFMVWSAGYGPSPEMLARIAPGRGFNFSDGKQPLAMARKSLTEMADLLNLQSAAETHLAQYEDFIRSMKPRFVKRGARPLLLTTLIDPRHMLVFGPNSLFQEILDEYGIPNAWQGETNFWGSTAVSIDRLAAYKDVDVLCFDHDNSKDMDALMATPLWQAMPFVRAGRFQRVPAVWFYGATLSAMHFVRVLDNAIGGKA
Consider B1, for which the binding entry in assay [1] and in assay [2] was “binds” throughout.

B2: FhuC, cytosolic ATPase subunit of FhuCDB (protein, UniProt P07821 1-265)
chain: MQEYTNHSDTTFALRNISFRVPGRTLLHPLSLTFPAGKVTGLIGHNGSGKSTLLKMLGRHQPPSEGEILLDAQPLESWSSKAFARKVAYLPQQLPPAEGMTVRELVAIGRYPWHGALGRFGAADREKVEEAISLVGLKPLAHRLVDSLSGGERQRAWIAMLVAQDSRCLLLDEPTSALDIAHQVDVLSLVHRLSQERGLTVIAVLHDINMAARYCDYLVALRGGEMIAQGTPAEIMRGETLEMIYGIPMGILPHPAGAAPVSFVY
Consider B2, for which the binding entry in assay [1] is listed as “binds”.

The record behind these values is PMC8660799, “Cryo-EM reveals unique structural features of the FhuCDB Escherichia coli ferrichrome importer” (Communications Biology, 2021).
